This note sets out measurements from article PMC12643979.

Common to all, as to assay: co-IP; HeLa cells co-transfected with FLAG-TBC1D9 and GFP-Rab29 or mutants, 48 h; basal, or stimulated with poly(dA:dT) or infected with GAS; lysis in 50 mM Tris-HCl pH 8.0, 120 mM NaCl, 1% NP-40, 50 mM NaF; GFP-Trap beads 2 h at 4°C, five washes, anti-Flag immunoblot
Experiment [1] deals with T1, GFP-Rab29 Q67L (human (cDNA from HEK293T)) (UniProt O14966).
T1 sequence: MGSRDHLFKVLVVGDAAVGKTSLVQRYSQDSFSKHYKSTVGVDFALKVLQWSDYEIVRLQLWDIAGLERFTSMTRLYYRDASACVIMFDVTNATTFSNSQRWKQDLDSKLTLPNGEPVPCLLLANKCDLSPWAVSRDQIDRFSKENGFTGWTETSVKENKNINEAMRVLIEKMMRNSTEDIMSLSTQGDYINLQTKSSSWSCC

The target in experiment [2] is T2, GFP-Rab29 T21N (human (cDNA from HEK293T)) (UniProt O14966).
T2 sequence: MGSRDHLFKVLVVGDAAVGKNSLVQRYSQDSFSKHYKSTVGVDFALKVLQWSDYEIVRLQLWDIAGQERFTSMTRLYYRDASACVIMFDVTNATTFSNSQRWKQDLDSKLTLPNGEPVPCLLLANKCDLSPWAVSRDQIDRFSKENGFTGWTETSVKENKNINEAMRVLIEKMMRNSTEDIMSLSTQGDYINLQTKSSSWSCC

Experiment [3] deals with T3, GFP-tagged Rab29 WT (human (cDNA from HEK293T)) (UniProt O14966).
T3 sequence: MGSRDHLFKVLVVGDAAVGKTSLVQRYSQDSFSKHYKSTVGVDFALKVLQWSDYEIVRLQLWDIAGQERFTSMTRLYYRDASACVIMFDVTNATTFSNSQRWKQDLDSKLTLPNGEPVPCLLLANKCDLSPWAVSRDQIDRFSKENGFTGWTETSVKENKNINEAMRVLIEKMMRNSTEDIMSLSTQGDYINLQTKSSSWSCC

No constants are given. Whether binding was seen depends on the method and setting. In cells and extracts the contact can be indirect. Some binding calls cover weakened binding; strength is not graded here. Sequences can lack the tags named with a protein.

B1: Flag-tagged TBC1D9 (protein, UniProt Q6ZT07 1-1266)
chain: MWVNPEEVLLANALWITERANPYFILQRRKGHAGDGGGGGGLAGLLVGTLDVVLDSSARVAPYRILYQTPDSLVYWTIACGGSRKEITEHWEWLEQNLLQTLSIFENENDITTFVRGKIQGIIAEYNKINDVKEDDDTEKFKEAIVKFHRLFGMPEEEKLVNYYSCSYWKGKVPRQGWMYLSINHLCFYSFLMGREAKLVIRWVDITQLEKNATLLLPDVIKVSTRSSEHFFSVFLNINETFKLMEQLANIAMRQLLDNEGFEQDRSLPKLKRKSPKKVSALKRDLDARAKSERYRALFRLPKDEKLDGHTDCTLWTPFNKMHILGQMFVSTNYICFTSKEENLCSLIIPLREVTIVEKADSSSVLPSPLSISTRNRMTFLFANLKDRDFLVQRISDFLQQTTSKIYSDKEFAGSYNSSDDEVYSRPSSLVSSSPQRSTSSDADGERQFNLNGNSVPTATQTLMTMYRRRSPEEFNPKLAKEFLKEQAWKIHFAEYGQGICMYRTEKTRELVLKGIPESMRGELWLLLSGAINEKATHPGYYEDLVEKSMGKYNLATEEIERDLHRSLPEHPAFQNEMGIAALRRVLTAYAFRNPNIGYCQAMNIVTSVLLLYAKEEEAFWLLVALCERMLPDYYNTRVVGALVDQGVFEELARDYVPQLYDCMQDLGVISTISLSWFLTLFLSVMPFESAVVVVDCFFYEGIKVIFQLALAVLDANVDKLLNCKDDGEAMTVLGRYLDSVTNKDSTLPPIPHLHSLLSDDVEPYPEVDIFRLIRTSYEKFGTIRADLIEQMRFKQRLKVIQTLEDTTKRNVVRTIVTETSFTIDELEELYALFKAEHLTSCYWGGSSNALDRHDPSLPYLEQYRIDFEQFKGMFALLFPWACGTHSDVLASRLFQLLDENGDSLINFREFVSGLSAACHGDLTEKLKLLYKMHVLPEPSSDQDEPDSAFEATQYFFEDITPECTHVVGLDSRSKQGADDGFVTVSLKPDKGKRANSQENRNYLRLWTPENKSKSKNAKDLPKLNQGQFIELCKTMYNMFSEDPNEQELYHATAAVTSLLLEIGEVGKLFVAQPAKEGGSGGSGPSCHQGIPGVLFPKKGPGQPYVVESVEPLPASLAPDSEEHSLGGQMEDIKLEDSSPRDNGACSSMLISDDDTKDDSSMSSYSVLSAGSHEEDKLHCEDIGEDTVLVRSGQGTAALPRSTSLDRDWAITFEQFLASLLTEPALVKYFDKPVCMMARITSAKNIRMMGKPLTSASDYEISAMSG
As to B1, the binding result in experiment [1] is recorded as “binds”; in experiment [2] it was “binds weakly”; in experiment [3], “binds”.
